Experimental data taken from paper PMC10835002.
Results are given in words; binding and its absence hold for the method and conditions named. In cells and extracts the contact can be indirect.

Biological target: Flag-tagged BZW2 with a W2 domain deletion (human)
Assay: co-IP; Flag-tagged protein expressed in HEK293; lysis in 1% NP40, 25 mM Tris-HCl pH 7.4, 150 mM NaCl, 10% glycerol; anti-FLAG M2 affinity gel, three washes with 0.2% NP40 buffer; partners detected by Western blot

B1: BCAP31 (protein, UniProt P51572 1-246)
chain: MSLQWTAVATFLYAEVFVVLLLCIPFISPKRWQKIFKSRLVELLVSYGNTFFVVLIVILVLLVIDAVREIRKYDDVTEKVNLQNNPGAMEHFHMKLFRAQRNLYIAGFSLLLSFLLRRLVTLISQQATLLASNEAFKKQAESASEAAKKYMEENDQLKKGAAVDGGKLDVGNAEVKLEEENRSLKADLQKLKDELASTKQKLEKAENQVLAMRKQSEGLTKEYDRLLEEHAKLQAAVDGPMDKKEE
B1 was tested, and the binding was “no binding”.
